The entries are a selection whose mix differs from that of the whole data set. The calls were merged from several studies; some rest on single wells. The list shows a part of the results.
Tests used:
Conditions in all cases: stereoisomer not certain
OR10K1 (Homo sapiens) = molecular target: T1, OR10K1 (Homo sapiens) (UniProt Q8NGX5)
T1 sequence (whole entry): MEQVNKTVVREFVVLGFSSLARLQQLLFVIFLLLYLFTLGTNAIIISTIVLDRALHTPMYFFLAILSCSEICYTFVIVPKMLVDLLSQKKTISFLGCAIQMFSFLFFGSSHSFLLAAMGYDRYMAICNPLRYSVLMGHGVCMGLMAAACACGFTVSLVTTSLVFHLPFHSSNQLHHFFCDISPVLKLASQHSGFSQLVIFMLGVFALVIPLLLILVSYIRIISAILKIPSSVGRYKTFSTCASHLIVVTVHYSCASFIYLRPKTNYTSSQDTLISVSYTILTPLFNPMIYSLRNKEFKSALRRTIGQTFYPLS
Summary of the method: (§1)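 Each receptor–molecule pair is labelled responsive or non-responsive (inactive) according to whether the original authors judged the measured signal statistically different from baseline. The data were taken from the main text and supplementary material of published papers and checked for typos and inconsistencies. Assay methods differed by source, with transient luciferase assays in mammalian cell lines being common.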

OR10K2 (Homo sapiens) = molecular target: T2, OR10K2 (Homo sapiens) (UniProt Q6IF99)
T2 sequence (whole entry): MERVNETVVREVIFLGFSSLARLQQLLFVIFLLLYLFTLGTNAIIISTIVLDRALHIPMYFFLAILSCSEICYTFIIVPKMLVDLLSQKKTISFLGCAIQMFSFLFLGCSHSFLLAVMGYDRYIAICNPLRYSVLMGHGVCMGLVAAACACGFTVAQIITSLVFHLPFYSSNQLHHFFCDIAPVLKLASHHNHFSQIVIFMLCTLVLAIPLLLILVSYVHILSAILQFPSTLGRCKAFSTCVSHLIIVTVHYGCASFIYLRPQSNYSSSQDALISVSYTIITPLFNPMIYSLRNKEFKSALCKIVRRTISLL
Summary of the method: as §1

OR10T2 (Homo sapiens) = molecular target: T3, OR10T2 (Homo sapiens) (UniProt Q8NGX3)
T3 sequence (whole entry): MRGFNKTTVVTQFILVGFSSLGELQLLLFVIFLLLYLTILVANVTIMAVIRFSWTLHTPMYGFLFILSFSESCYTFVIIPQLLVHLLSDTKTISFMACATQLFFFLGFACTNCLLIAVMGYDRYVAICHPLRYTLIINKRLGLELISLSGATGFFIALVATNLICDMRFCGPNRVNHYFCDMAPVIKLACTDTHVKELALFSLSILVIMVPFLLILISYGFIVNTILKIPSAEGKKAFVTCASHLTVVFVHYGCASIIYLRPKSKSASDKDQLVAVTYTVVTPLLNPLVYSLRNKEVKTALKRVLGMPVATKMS
Summary of the method: as §1

OR10X1 (Homo sapiens) = molecular target: T4, OR10X1 (Homo sapiens) (UniProt Q8NGY0)
T4 sequence (whole entry): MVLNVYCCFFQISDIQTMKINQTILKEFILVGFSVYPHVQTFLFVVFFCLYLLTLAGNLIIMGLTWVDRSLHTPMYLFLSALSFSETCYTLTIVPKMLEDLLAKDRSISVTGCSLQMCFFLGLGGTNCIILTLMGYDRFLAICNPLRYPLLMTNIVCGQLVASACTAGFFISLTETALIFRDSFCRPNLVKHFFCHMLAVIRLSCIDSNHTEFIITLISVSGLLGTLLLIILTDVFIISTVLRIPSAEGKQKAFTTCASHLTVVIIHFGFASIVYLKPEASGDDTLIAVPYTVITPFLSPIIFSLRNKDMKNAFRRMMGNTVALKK
Summary of the method: as §1

OR10Z1 (Homo sapiens) = molecular target: T5, OR10Z1 (Homo sapiens) (UniProt Q8NGY1)
T5 sequence (whole entry): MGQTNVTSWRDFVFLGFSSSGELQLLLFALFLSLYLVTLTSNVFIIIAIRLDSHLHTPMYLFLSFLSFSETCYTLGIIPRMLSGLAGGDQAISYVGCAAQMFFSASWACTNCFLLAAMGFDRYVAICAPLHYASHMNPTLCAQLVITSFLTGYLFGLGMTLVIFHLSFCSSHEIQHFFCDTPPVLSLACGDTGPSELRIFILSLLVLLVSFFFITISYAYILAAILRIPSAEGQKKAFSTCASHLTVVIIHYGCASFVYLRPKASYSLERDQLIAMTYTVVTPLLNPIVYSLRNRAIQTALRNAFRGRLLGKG
Summary of the method: as §1

OR11A1 (Homo sapiens) = molecular target: T6, OR11A1 (Homo sapiens) (UniProt Q9GZK7)
T6 sequence (whole entry): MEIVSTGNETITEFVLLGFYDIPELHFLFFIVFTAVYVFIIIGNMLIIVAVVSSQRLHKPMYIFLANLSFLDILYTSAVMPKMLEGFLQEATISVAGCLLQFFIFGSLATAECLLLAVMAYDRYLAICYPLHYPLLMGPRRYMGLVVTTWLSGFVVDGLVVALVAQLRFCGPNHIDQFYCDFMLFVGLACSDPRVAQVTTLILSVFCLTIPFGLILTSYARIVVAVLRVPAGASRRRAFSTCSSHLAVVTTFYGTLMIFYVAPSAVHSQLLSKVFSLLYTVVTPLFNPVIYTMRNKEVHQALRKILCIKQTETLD
Summary of the method: as §1

OR11H4 (Homo sapiens) = molecular target: T7, OR11H4 (Homo sapiens) (UniProt Q8NGC9)
T7 sequence (whole entry): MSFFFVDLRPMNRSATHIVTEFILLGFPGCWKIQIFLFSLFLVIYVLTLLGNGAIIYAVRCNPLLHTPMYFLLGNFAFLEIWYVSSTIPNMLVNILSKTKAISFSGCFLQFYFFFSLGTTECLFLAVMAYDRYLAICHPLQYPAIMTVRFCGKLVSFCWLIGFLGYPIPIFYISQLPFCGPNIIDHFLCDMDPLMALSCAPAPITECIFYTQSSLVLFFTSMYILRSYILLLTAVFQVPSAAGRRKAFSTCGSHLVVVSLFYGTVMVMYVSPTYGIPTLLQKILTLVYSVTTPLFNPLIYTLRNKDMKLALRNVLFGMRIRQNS
Summary of the method: as §1

OR11H6 (Homo sapiens) = molecular target: T8, OR11H6 (Homo sapiens) (UniProt Q8NGC7)
T8 sequence (whole entry): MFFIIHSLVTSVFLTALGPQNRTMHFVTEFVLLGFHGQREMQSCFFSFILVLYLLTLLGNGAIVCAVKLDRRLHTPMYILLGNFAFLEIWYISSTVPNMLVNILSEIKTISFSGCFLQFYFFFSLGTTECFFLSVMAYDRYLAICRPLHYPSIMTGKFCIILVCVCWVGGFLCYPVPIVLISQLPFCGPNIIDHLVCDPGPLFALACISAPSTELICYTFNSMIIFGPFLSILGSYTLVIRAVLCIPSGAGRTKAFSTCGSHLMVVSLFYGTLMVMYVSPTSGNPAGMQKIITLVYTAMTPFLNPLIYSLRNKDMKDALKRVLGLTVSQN
Summary of the method: as §1

OR12D2 (Homo sapiens) = molecular target: T9, OR12D2 (Homo sapiens) (UniProt P58182)
T9 sequence (whole entry): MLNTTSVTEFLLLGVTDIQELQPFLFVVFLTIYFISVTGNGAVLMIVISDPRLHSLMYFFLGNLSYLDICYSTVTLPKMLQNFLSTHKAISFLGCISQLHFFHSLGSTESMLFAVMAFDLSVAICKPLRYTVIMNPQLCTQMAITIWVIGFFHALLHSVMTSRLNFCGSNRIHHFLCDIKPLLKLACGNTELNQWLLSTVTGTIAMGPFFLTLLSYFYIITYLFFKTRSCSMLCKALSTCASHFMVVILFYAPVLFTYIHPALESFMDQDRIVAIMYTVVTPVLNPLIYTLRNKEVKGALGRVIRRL
Summary of the method: as §1

OR12D3 (Homo sapiens) = molecular target: T10, OR12D3 (Homo sapiens) (UniProt Q9UGF7)
T10 sequence (whole entry): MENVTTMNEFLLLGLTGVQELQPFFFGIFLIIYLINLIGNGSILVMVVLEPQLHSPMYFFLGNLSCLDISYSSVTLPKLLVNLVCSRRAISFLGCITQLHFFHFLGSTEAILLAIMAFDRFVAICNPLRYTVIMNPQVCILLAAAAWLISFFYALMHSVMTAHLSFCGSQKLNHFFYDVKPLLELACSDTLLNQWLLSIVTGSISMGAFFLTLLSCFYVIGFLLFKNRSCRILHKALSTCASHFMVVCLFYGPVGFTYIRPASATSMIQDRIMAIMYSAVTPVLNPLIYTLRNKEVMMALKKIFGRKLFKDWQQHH
Summary of the method: as §1

OR13A1 (Homo sapiens) = molecular target: T11, OR13A1 (Homo sapiens) (UniProt Q8NGR1)
T11 sequence (whole entry): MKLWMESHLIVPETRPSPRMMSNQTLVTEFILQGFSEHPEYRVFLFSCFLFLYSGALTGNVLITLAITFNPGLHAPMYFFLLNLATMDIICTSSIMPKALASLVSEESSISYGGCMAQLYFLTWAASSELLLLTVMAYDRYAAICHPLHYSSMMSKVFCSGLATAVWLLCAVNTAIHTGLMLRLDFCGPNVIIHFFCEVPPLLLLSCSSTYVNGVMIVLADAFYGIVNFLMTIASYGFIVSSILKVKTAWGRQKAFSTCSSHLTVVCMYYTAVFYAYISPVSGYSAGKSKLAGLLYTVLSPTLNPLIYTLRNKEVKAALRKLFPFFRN
Summary of the method: as §1

OR10S1 (Homo sapiens) = molecular target: T12, OR10S1 (Homo sapiens) (UniProt Q8NGN2)
T12 sequence (whole entry): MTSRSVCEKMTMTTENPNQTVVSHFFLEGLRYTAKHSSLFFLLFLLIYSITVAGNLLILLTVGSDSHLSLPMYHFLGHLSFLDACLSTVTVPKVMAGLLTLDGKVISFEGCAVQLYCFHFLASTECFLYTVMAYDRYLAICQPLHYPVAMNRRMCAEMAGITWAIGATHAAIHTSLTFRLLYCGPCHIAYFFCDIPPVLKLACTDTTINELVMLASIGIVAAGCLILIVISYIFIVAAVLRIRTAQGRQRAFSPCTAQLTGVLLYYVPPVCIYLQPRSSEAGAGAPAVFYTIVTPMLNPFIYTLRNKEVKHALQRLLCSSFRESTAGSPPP
Summary of the method: as §1

CC(C)C(=O)O
odorant receptor agonist call (OR10K1 (Homo sapiens)): inactive | odorant receptor agonist call (OR10K2 (Homo sapiens)): inactive | odorant receptor agonist call (OR10T2 (Homo sapiens)): inactive | odorant receptor agonist call (OR10X1 (Homo sapiens)): inactive | odorant receptor agonist call (OR10Z1 (Homo sapiens)): inactive | odorant receptor agonist call (OR11A1 (Homo sapiens)): inactive | odorant receptor agonist call (OR11H4 (Homo sapiens)): inactive | odorant receptor agonist call (OR11H6 (Homo sapiens)): inactive | odorant receptor agonist call (OR12D2 (Homo sapiens)): inactive | odorant receptor agonist call (OR12D3 (Homo sapiens)): inactive | odorant receptor agonist call (OR13A1 (Homo sapiens)): inactive

CCCCCCCCCCC=O
odorant receptor agonist call (OR10K1 (Homo sapiens)): inactive | odorant receptor agonist call (OR10K2 (Homo sapiens)): inactive | odorant receptor agonist call (OR10S1 (Homo sapiens)): inactive | odorant receptor agonist call (OR10T2 (Homo sapiens)): inactive | odorant receptor agonist call (OR10X1 (Homo sapiens)): inactive | odorant receptor agonist call (OR10Z1 (Homo sapiens)): inactive | odorant receptor agonist call (OR11A1 (Homo sapiens)): inactive | odorant receptor agonist call (OR11H4 (Homo sapiens)): inactive | odorant receptor agonist call (OR11H6 (Homo sapiens)): inactive | odorant receptor agonist call (OR12D2 (Homo sapiens)): inactive | odorant receptor agonist call (OR12D3 (Homo sapiens)): inactive | odorant receptor agonist call (OR13A1 (Homo sapiens)): inactive

COc1cc(C)ccc1O
odorant receptor agonist call (OR10K1 (Homo sapiens)): inactive | odorant receptor agonist call (OR10K2 (Homo sapiens)): inactive | odorant receptor agonist call (OR10T2 (Homo sapiens)): inactive | odorant receptor agonist call (OR10X1 (Homo sapiens)): inactive | odorant receptor agonist call (OR10Z1 (Homo sapiens)): inactive | odorant receptor agonist call (OR11A1 (Homo sapiens)): inactive | odorant receptor agonist call (OR11H4 (Homo sapiens)): inactive | odorant receptor agonist call (OR11H6 (Homo sapiens)): inactive | odorant receptor agonist call (OR12D2 (Homo sapiens)): inactive | odorant receptor agonist call (OR12D3 (Homo sapiens)): inactive | odorant receptor agonist call (OR13A1 (Homo sapiens)): inactive

CCCCCCCC=O
odorant receptor agonist call (OR10K1 (Homo sapiens)): inactive | odorant receptor agonist call (OR10K2 (Homo sapiens)): inactive | odorant receptor agonist call (OR10S1 (Homo sapiens)): inactive | odorant receptor agonist call (OR10T2 (Homo sapiens)): inactive | odorant receptor agonist call (OR10X1 (Homo sapiens)): inactive | odorant receptor agonist call (OR10Z1 (Homo sapiens)): inactive | odorant receptor agonist call (OR11A1 (Homo sapiens)): inactive | odorant receptor agonist call (OR11H4 (Homo sapiens)): inactive | odorant receptor agonist call (OR11H6 (Homo sapiens)): inactive | odorant receptor agonist call (OR12D2 (Homo sapiens)): inactive | odorant receptor agonist call (OR12D3 (Homo sapiens)): inactive | odorant receptor agonist call (OR13A1 (Homo sapiens)): inactive

CC(C)CC(=O)O
odorant receptor agonist call (OR10K1 (Homo sapiens)): inactive | odorant receptor agonist call (OR10K2 (Homo sapiens)): inactive | odorant receptor agonist call (OR10S1 (Homo sapiens)): inactive | odorant receptor agonist call (OR10T2 (Homo sapiens)): inactive | odorant receptor agonist call (OR10X1 (Homo sapiens)): inactive | odorant receptor agonist call (OR10Z1 (Homo sapiens)): inactive | odorant receptor agonist call (OR11A1 (Homo sapiens)): inactive | odorant receptor agonist call (OR11H4 (Homo sapiens)): active | odorant receptor agonist call (OR11H6 (Homo sapiens)): active | odorant receptor agonist call (OR12D2 (Homo sapiens)): inactive | odorant receptor agonist call (OR12D3 (Homo sapiens)): inactive | odorant receptor agonist call (OR13A1 (Homo sapiens)): inactive

C=CC(C)(O)CCC=C(C)C (stereo not given)
odorant receptor agonist call (OR10K1 (Homo sapiens)): inactive | odorant receptor agonist call (OR10K2 (Homo sapiens)): inactive | odorant receptor agonist call (OR10S1 (Homo sapiens)): inactive | odorant receptor agonist call (OR10T2 (Homo sapiens)): inactive | odorant receptor agonist call (OR10X1 (Homo sapiens)): inactive | odorant receptor agonist call (OR10Z1 (Homo sapiens)): inactive | odorant receptor agonist call (OR11A1 (Homo sapiens)): inactive | odorant receptor agonist call (OR11H4 (Homo sapiens)): inactive | odorant receptor agonist call (OR11H6 (Homo sapiens)): inactive | odorant receptor agonist call (OR12D2 (Homo sapiens)): inactive | odorant receptor agonist call (OR12D3 (Homo sapiens)): inactive | odorant receptor agonist call (OR13A1 (Homo sapiens)): inactive
